In US20030040089A1:

Target: Rho protein-dependent protein kinase (Human)
Assay: yeast two-hybrid

B1: Human Splicing Factor 1 (protein)
chain: ATGANATPLDFPSKKRKRSRWNQDTMEQKTVIPGMPTVIPPGLTREQERAYIVQLQIEDLTRKLRTGDLGIPPNPEDRSPSPEPIYNSEGKRLNTREFRTRKKLEEERHNLITEMVALNPDFKPPADYKPPATRVSDKVMIPQDEYPEINFVGLLIGPRGNTLKNIEKECNAKIMIRGKGSVKEGKVGRKDGQMLPGEDEPLHALVTANTMENVKKAVEQIRNILKQGIETPEDQNDLRKMQLRELARLNGTLREDDNRILRPWQSSETRSITNTTVCTKCGGAGHIASDCKFQRPGDPQSAQDKARMDKEYLSLMAELGEAPVPASVGSTSGPATTPLASAPRPAAPANNPPPPSLMSTTQSRPPWMNSGPSESRPYHGMHGGGPGGPGGGPHSFPHPLPSLTGGHGGHPMQHNPNGPPPPWMQPPPPPMNQGPHPPGHHGPPPMDQYLGSTPVGSGVYRLHQGKGMMPPPPMGMMPPPPPPPSGQPPPPPSGPLPPWQQQQQQPPPPPPPSSSMASSTPLPWQQNTTTTTTSAGTGSIPPWQQQQAAAAASPGAPQMQGNPTMVPLPPGVQPPLPPGAPPPPPPPPPGSAGMMIPPRGGDGPSHESEDFPRPLVTLPGRQPQQRPWWTGWFGKAA
- binding: binds

No constants are given. Whether binding was seen depends on the method and setting. A result given as binding can be weak or reduced; the word gives no strength.
